At least one structure is not confirmed: it was looked up by name or label, or the drawing left a doubt.
Experiment: Pharmacokinetics in plasma following single dose and repeated doses of Compound A 1.5 succinate
Type: in vivo, human
Protocol: In order to evaluate the PK when administered as a single dose, a single dose of Compound A for each treatment group (at the corresponding dosage for that group) was administered on Day 1. Compound A was administered when fasted, immediately after waking up with at least 10 hours fasting. Taking any meal was prohibited for 2 hours after administration and only drinking water was allowed.
Cycle 1 was started between 8 and 10 days after dosing in Cycle 0 and Compound A was administered continuously once daily. Compound A was administered at least 2 hours after breakfast, and any food intake was prohibited for 1 hour after administration. However, on Day 8 of Cycle 1, Compound A was administered immediately after waking up while the subject was fasted after at least 10 hours of overnight fasting in order to evaluate the PK. Taking any meals was prohibited for 2 hours after administration and only drinking water was allowed.
Plasma concentration profile of Compound A following a single dose and repeated doses of Compound A 1.5 succinate are shown in FIG. 1 and FIG. 2, respectively. The profile shown in FIG. 2 is that at steady state.
(§1) The pharmacokinetic parameters of Compound A following the single dose and repeated doses of Compound A 1.5 succinate are shown in the following table. The pharmacokinetic parameters of Compound A following repeated doses of Compound A 1.5 succinate shown below are those at steady state.
as §1, with “1.5 succinate updated after obtaining the above data are shown” for “1.5 succinate are shown”
The pharmacokinetic parameters of Compound B following the single dose and repeated doses of Compound A 1.5 succinate are shown in the following table. The pharmacokinetic parameters of Compound B following repeated doses of Compound A 1.5 succinate shown below are those at steady state.

Work on `CNC(=O)n1ccc2cc(Oc3ccnc(NC(=O)c4ccc(C5CCN(CCO)CC5)cc4)c3)c(OCCOC)cc21` [Compound A, 5-((2-(4-(1-(2-hydroxyethyl)piperidin-4-yl)benzamide)pyridin-4-yl)oxy)-6-(2-methoxyethoxy)-N-methyl-1H-indole-1-carboxamide] yielded a Vz/F (single dose 30 mg (n = 2), Table 4) of 4230 L, a Vz/F (single dose 30 mg (n = 2), Table 5 (updated)) of 4180 L and a Vz/F (single dose 60 mg (n = 3), Table 4) of 3820 ± 1280 L. For the same compound, the Vz/F (single dose 60 mg (n = 3), Table 5 (updated)) was 3790 ± 1240 L, the Vz/F (single dose 100 mg (n = 3), Table 4) was 2310 ± 1370 L and the Vz/F (single dose 100 mg (n = 3), Table 5 (updated)) was 2310 ± 1360 L. It also gave a Vz/F (single dose 140 mg (n = 3), Table 4) of 1700 ± 650 L, a Vz/F (single dose 140 mg (n = 3), Table 5 (updated)) of 1670 ± 617 L and a Vz/F (single dose 180 mg (n = 3), Table 4) of 2560 ± 1490 L. The Vz/F (single dose 180 mg (n = 3), Table 5 (updated)) was 2550 ± 1500 L.

From patent publication US20200297711A1, “PHARMACEUTICAL COMPOSITION COMPRISING FGFR SELECTIVE TYROSINE KINASE INHIBITOR” (priority 2017, published 2020)
